# Test results taken from the supplement of paper PMC11438910.
# The other results are listed elsewhere or left out. The signal is at background level for most entries.
# Tests used:
# Test in all cases: fluorescence intensity of antibody binding to polysaccharide-coupled beads; higher = stronger binding
# [1] = target: pneumococcal polysaccharide Pn38
# [2] = target: pneumococcal polysaccharide Pn39
# [3] = target: pneumococcal polysaccharide Pn4
# [4] = target: pneumococcal polysaccharide Pn40
# [5] = target: pneumococcal polysaccharide Pn41A
# [6] = target: pneumococcal polysaccharide Pn41F
# [7] = target: pneumococcal polysaccharide Pn42
# [8] = target: pneumococcal polysaccharide Pn43
# [9] = target: pneumococcal polysaccharide Pn44
# [10] = target: pneumococcal polysaccharide Pn45
# [11] = target: pneumococcal polysaccharide Pn46
# [12] = target: pneumococcal polysaccharide Pn47A
# [13] = antibody concentration 81.7561 ng/mL
# [14] = antibody concentration 437.17 ng/mL
# [15] = antibody concentration 2337.65 ng/mL
# [16] = antibody concentration 12500 ng/mL
# [17] = antibody concentration 0.1 ng/mL
# [18] = antibody concentration 0.534724 ng/mL
# [19] = antibody concentration 2.8593 ng/mL
# [20] = antibody concentration 15.2894 ng/mL
binder,measurement,setting,value
4-80.4 (protein) chain 1: QVQLQESGPGLVKPSETLSLTCAVSGGSFSSYWWSWIRQSPGKGLEWIGEISGNSGSTNYNPSLKSRVTISKDASKNQFSLKLSSVTAADTAVYYCARYKEYWGQGVLVTVSS chain 2: DVVMTQSPLSLLITPGQPASISCRSSQSLVHSNGNTYLSWYQQKPGQPPRRLLYEVSNRDSGVPDRFSGSGAGTDFTLKISRVEAEDVGVYYCGQGTHLPYSFGQGTKVEIK,fluorescence intensity,[1]; [13],24.8 MFI
same,fluorescence intensity,[1]; [14],27.5 MFI
same,fluorescence intensity,[1]; [15],28 MFI
same,fluorescence intensity,[1]; [16],34 MFI
same,fluorescence intensity,[2]; [17],19 MFI
same,fluorescence intensity,[2]; [18],17 MFI
same,fluorescence intensity,[2]; [19],18.2 MFI
same,fluorescence intensity,[2]; [20],19 MFI
same,fluorescence intensity,[2]; [13],19 MFI
same,fluorescence intensity,[2]; [14],18 MFI
same,fluorescence intensity,[2]; [15],19 MFI
same,fluorescence intensity,[2]; [16],33 MFI
same,fluorescence intensity,[3]; [17],17.5 MFI
same,fluorescence intensity,[3]; [18],17 MFI
same,fluorescence intensity,[3]; [19],18 MFI
same,fluorescence intensity,[3]; [20],18 MFI
same,fluorescence intensity,[3]; [13],19 MFI
same,fluorescence intensity,[3]; [14],19 MFI
same,fluorescence intensity,[3]; [15],21 MFI
same,fluorescence intensity,[3]; [16],31.5 MFI
same,fluorescence intensity,[4]; [17],15 MFI
same,fluorescence intensity,[4]; [18],17.5 MFI
same,fluorescence intensity,[4]; [19],17 MFI
same,fluorescence intensity,[4]; [20],16.5 MFI
same,fluorescence intensity,[4]; [13],17 MFI
same,fluorescence intensity,[4]; [14],17 MFI
same,fluorescence intensity,[4]; [15],18.5 MFI
same,fluorescence intensity,[4]; [16],43 MFI
same,fluorescence intensity,[5]; [17],24 MFI
same,fluorescence intensity,[5]; [18],23.5 MFI
same,fluorescence intensity,[5]; [19],22.5 MFI
same,fluorescence intensity,[5]; [20],22.5 MFI
same,fluorescence intensity,[5]; [13],23.5 MFI
same,fluorescence intensity,[5]; [14],24 MFI
same,fluorescence intensity,[5]; [15],24.5 MFI
same,fluorescence intensity,[5]; [16],28.5 MFI
same,fluorescence intensity,[6]; [17],13 MFI
same,fluorescence intensity,[6]; [18],12.5 MFI
same,fluorescence intensity,[6]; [19],12.5 MFI
same,fluorescence intensity,[6]; [20],13.5 MFI
same,fluorescence intensity,[6]; [13],14 MFI
same,fluorescence intensity,[6]; [14],12 MFI
same,fluorescence intensity,[6]; [15],14.5 MFI
same,fluorescence intensity,[6]; [16],19 MFI
same,fluorescence intensity,[7]; [17],11.5 MFI
same,fluorescence intensity,[7]; [18],11.5 MFI
same,fluorescence intensity,[7]; [19],11.5 MFI
same,fluorescence intensity,[7]; [20],12 MFI
same,fluorescence intensity,[7]; [13],10.8 MFI
same,fluorescence intensity,[7]; [14],12.5 MFI
same,fluorescence intensity,[7]; [15],12 MFI
same,fluorescence intensity,[7]; [16],24 MFI
same,fluorescence intensity,[8]; [17],15.5 MFI
same,fluorescence intensity,[8]; [18],13.5 MFI
same,fluorescence intensity,[8]; [19],15.5 MFI
same,fluorescence intensity,[8]; [20],15.5 MFI
same,fluorescence intensity,[8]; [13],16 MFI
same,fluorescence intensity,[8]; [14],16.5 MFI
same,fluorescence intensity,[8]; [15],20.5 MFI
same,fluorescence intensity,[8]; [16],73.5 MFI
same,fluorescence intensity,[9]; [17],23.8 MFI
same,fluorescence intensity,[9]; [18],24 MFI
same,fluorescence intensity,[9]; [19],25.5 MFI
same,fluorescence intensity,[9]; [20],22 MFI
same,fluorescence intensity,[9]; [13],25.5 MFI
same,fluorescence intensity,[9]; [14],24.5 MFI
same,fluorescence intensity,[9]; [15],25.8 MFI
same,fluorescence intensity,[9]; [16],31 MFI
same,fluorescence intensity,[10]; [17],10 MFI
same,fluorescence intensity,[10]; [18],11 MFI
same,fluorescence intensity,[10]; [19],11.5 MFI
same,fluorescence intensity,[10]; [20],10 MFI
same,fluorescence intensity,[10]; [13],11 MFI
same,fluorescence intensity,[10]; [14],11 MFI
same,fluorescence intensity,[10]; [15],12.5 MFI
same,fluorescence intensity,[10]; [16],15.8 MFI
same,fluorescence intensity,[11]; [17],23 MFI
same,fluorescence intensity,[11]; [18],23.5 MFI
same,fluorescence intensity,[11]; [19],23 MFI
same,fluorescence intensity,[11]; [20],24.2 MFI
same,fluorescence intensity,[11]; [13],23 MFI
same,fluorescence intensity,[11]; [14],24.8 MFI
same,fluorescence intensity,[11]; [15],25.5 MFI
same,fluorescence intensity,[11]; [16],43.8 MFI
same,fluorescence intensity,[12]; [17],16 MFI
same,fluorescence intensity,[12]; [18],15.5 MFI
same,fluorescence intensity,[12]; [19],15 MFI
same,fluorescence intensity,[12]; [20],16 MFI
same,fluorescence intensity,[12]; [13],16.5 MFI
same,fluorescence intensity,[12]; [14],15.5 MFI

# Another view of some results above:
binder	measurement	setting	value
4-80.4 (protein) chain 1: QVQLQESGPGLVKPSETLSLTCAVSGGSFSSYWWSWIRQSPGKGLEWIGEISGNSGSTNYNPSLKSRVTISKDASKNQFSLKLSSVTAADTAVYYCARYKEYWGQGVLVTVSS chain 2: DVVMTQSPLSLLITPGQPASISCRSSQSLVHSNGNTYLSWYQQKPGQPPRRLLYEVSNRDSGVPDRFSGSGAGTDFTLKISRVEAEDVGVYYCGQGTHLPYSFGQGTKVEIK	fluorescence intensity	[5]; [14]	24 MFI
same	fluorescence intensity	[5]; [15]	24.5 MFI
same	fluorescence intensity	[5]; [16]	28.5 MFI
same	fluorescence intensity	[6]; [17]	13 MFI
